Experimental data as given in paper PMC6761100.
Changes are numbered by the printed parent chain. Names may count otherwise. These are yes or no findings as the source states them, for the method shown. In cells and extracts the contact can be indirect. Some binding calls cover weakened binding; strength is not graded here.

T1: WHITE COLLAR 2 (WC-2) (Neurospora (endogenous in Neurospora extracts)) (UniProt P78714)
T1 sequence: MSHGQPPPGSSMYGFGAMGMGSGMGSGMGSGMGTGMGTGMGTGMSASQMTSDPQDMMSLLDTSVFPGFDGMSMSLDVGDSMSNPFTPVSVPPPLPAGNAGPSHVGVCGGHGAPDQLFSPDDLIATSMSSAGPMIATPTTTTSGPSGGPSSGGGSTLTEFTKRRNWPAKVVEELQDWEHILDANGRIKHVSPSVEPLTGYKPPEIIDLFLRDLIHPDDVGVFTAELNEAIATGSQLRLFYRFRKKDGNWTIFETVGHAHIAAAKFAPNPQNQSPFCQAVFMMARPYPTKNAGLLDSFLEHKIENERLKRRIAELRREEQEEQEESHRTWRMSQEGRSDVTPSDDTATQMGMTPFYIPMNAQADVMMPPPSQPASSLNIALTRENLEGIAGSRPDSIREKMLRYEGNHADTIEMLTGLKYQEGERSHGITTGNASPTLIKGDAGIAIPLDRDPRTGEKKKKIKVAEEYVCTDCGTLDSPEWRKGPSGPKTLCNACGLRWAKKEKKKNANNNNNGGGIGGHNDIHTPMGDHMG

B1: FREQUENCY (FRQ), wild type (protein, UniProt P19970 1-989)
chain: MADSGDKSQGMRPPPFDSRGHPLPRRASPDKSITLENHRLARDTSSRVTSSSALGVTESQPQLKSSPTRRNSSGESEPTNWFNQSNRNPAAAFHDESHIMEVDPPFYQKETDSSNEESRYPPGRNPVHPPGGVQLPGFRPVAAHSSAADDYRSVIDDLTVENKRLKEELKRYKQFGSDVMRKEKLFEIKVHGLPRRKKRELEATLRDFAASLGDSSESTSQRRKTGRHGTAVHSSGVSLSKHDSSSSSRSRPVDSAYNSMSTGRSSHAPHSSGPSLGRPSLTRAKSVGTQKVENYLRDTPDGLLPHHIVMTDKEKKKLVVRRLEQLFTGKISGRNMQRNQSMPSMDAPLAPEGTNMAPPRPPPEGLREACIQLQDGDNPRKNRSSKDNGSASNSGGDQTELGGTGTGSGDGSGSGGRTGNNTSPPGAIAPDQRPTRPRDLDPDRVQIPSENMDYIRHLGLVSPEFLQGSRTSYQDVAPDAEGWVYLNLLCNLAQLHMVNVTPSFIRQAVSEKSTKFQLSADGRKIRWRGGTDGTKFSSDSSEDKSQQSPMTEDTEDGSDKNGRRKKRKTQQASSEIGRFGPSRSPSDTFHYKPMFVHRNSSSIETSLEESMSQGSEDAVDESNMGNSKWDFSGSGTTQQRRKRRYDGAIVYYTGAPFCTDLSGDPGDMSPTAQMTAGREVEGSGSGDEVEHVLQRTLSGSSLPIRPLSDDRARVAEVLDFDPGNPPELVADDGSSPNDEDFVFPWCEDPAKVRIQPIAKEVMEPSGLGGVLPDDHFVMLVTTRRVVRPILQRQLSRSTTSEDTAEFIAERLAAIRTSSPLPPRSHRLTVAPLQVEYVSGQFRRLNPAPLPPPAIFYPPFSTDSSWDDGDDLASDDEEVEEVEEDSYSEGQISRRANPHFSDNNTYMRKDDLAFDTETDVRMDSDDNRLSDSGHNMRAMMPRAEAVDGDDSPLAAVTGKEVDMLHTGSSVATAGGAESGYSSSMEDVSSS
B2: FRQ S519A (protein, UniProt P19970 1-989)
chain: B1 chain with S519A
B3: FRQ S513R (protein, UniProt P19970 1-989)
chain: B1 chain with S513R

Molecular target: T1, WHITE COLLAR 2 (WC-2) (Neurospora (endogenous in Neurospora extracts))
Experiment: co-IP; WC-2 antibody and GammaBind G Sepharose beads, 2 mg Neurospora extract (50 mM HEPES pH 7.4, 137 mM NaCl, 10% glycerol); WC-2 precipitated, FRQ detected by Western blot; cultures in LL, for the wild type also at time points in DD

binding, binds:
B1, B2, B3
